# Taken from: PubChem BioAssay AID1259297 (Sanger Institute, 2017)
# Assay: 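Kinases whose loss kills cells on their own or with targeted drugs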 (primary screen)
# System: human RCM1 colorectal cancer cell line
# Reagent: siRNA pool against human genes
# Challenge: separate arms: DMSO vehicle, or one anchor drug at a mild dose: BYL719 1 µM, cetuximab 5 µg/ml, trametinib 10 nM
# Measured: 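Replicate-mean well viability as a share of non-targeting pool control, a robust z-score without drug, and synergy scores for BYL719, cetuximab and trametinib arms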
# Scale: viability z-score, knock-down alone: higher = more viable cells than non-targeting controls; viability, knock-down alone (DMSO): higher = more viable cells; synergy score with trametinib: higher = stronger combined killing with trametinib; synergy score with BYL719: higher = stronger combined killing with BYL719; synergy score with cetuximab: higher = stronger combined killing with cetuximab
# Hit rule: 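Called essential if knock-down without drug gives a viability robust z-score under -3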
# Meaning of the calls: active = essential when knocked down alone; inactive = no clear loss of viability alone
# This is an unselected part of 794 deposited reagents. In the full data, 13 (1.6%) are marked active. 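Calls reflect knock-down without drug only; drug synergy is judged separately, with scores above 0.15 counted as synergy.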 Viability is capped at 1. Not given: the amount of reagent, the time to read-out.
Gene,"viability z-score, knock-down alone","viability, knock-down alone (DMSO) (fraction of control)",synergy score with trametinib,synergy score with BYL719,synergy score with cetuximab,activity call
PRKAG3 (GeneID 53632),-1.82,0.747,0.0921,0.0037,-0.0173,inactive
STK3 (GeneID 6788),0.43,0.956,0.0147,0.00543,0.0677,inactive
CKB (GeneID 1152),0.9,1,-0.0428,-0.0728,-0.118,inactive
PRKAR2A (GeneID 5576),-0.715,0.85,0.0453,0.0486,-0.0533,inactive
PRKAB1 (GeneID 5564),-2.53,0.681,0.0481,-0.0591,-0.0292,inactive
PIP5K1C (GeneID 23396),0.135,0.929,0.0621,0.0498,-0.164,inactive
PCBP1 (GeneID 5093),0.242,0.939,-0.0116,-0.0823,-0.0865,inactive
PLK3 (GeneID 1263),0.9,1,0.0569,-0.0657,-0.00859,inactive
MARK1 (GeneID 4139),-0.241,0.894,0.0351,-0.00248,-0.0707,inactive
MAGI1 (GeneID 9223),-0.816,0.841,0.126,-0.0152,0.059,inactive
CRIM1 (GeneID 51232),0.9,1,0.148,0.0532,0.037,inactive
COQ8B (GeneID 79934),0.253,0.94,-0.0394,-0.0631,-0.0934,inactive
HIPK4 (GeneID 147746),0.9,1,0.0091,-0.0528,-0.0531,inactive

Looked up above:
PCBP1 (GeneID 5093), viability z-score, knock-down alone: 0.242
Result of HIPK4 (GeneID 147746) under “synergy score with cetuximab”: -0.0531

The listing continues.
Gene,"viability z-score, knock-down alone","viability, knock-down alone (DMSO) (fraction of control)",synergy score with trametinib,synergy score with BYL719,synergy score with cetuximab,activity call
RET (GeneID 5979),0.81,0.992,0.0603,-0.0558,-0.126,inactive
PDK2 (GeneID 5164),0.9,1,0.00758,-0.00796,-0.0817,inactive
KHK (GeneID 3795),0.46,0.959,0.028,-0.00624,-0.0092,inactive
ADPGK (GeneID 83440),0.663,0.978,-0.0909,0.072,0.0106,inactive
CALM2 (GeneID 805),-1.22,0.803,0.0292,-0.0857,0.00547,inactive
STK25 (GeneID 10494),0.9,1,0.0849,0.0375,-0.0682,inactive
MAPK15 (GeneID 225689),0.9,1,0.00965,-0.064,-0.118,inactive
IGF2R (GeneID 3482),0.9,1,0.00963,-0.0152,-0.105,inactive
TK2 (GeneID 7084),0.9,1,0.0123,-0.0486,-0.0899,inactive
PIM2 (GeneID 11040),0.0832,0.924,0.0333,-0.0444,0.00147,inactive
PMVK (GeneID 10654),-0.667,0.855,0.00597,-0.0515,0.0186,inactive
NLK (GeneID 51701),0.807,0.991,0.172,0.0307,0.0678,inactive
PFKP (GeneID 5214),-0.0782,0.909,-0.0585,0.0325,-0.12,inactive
CLK2 (GeneID 1196),0.859,0.996,-0.0205,-0.0412,-0.107,inactive
DYRK1A (GeneID 1859),0.513,0.964,0.0844,-0.0848,-0.1,inactive
MAP4K4 (GeneID 9448),-0.589,0.862,0.00155,-0.0907,-0.195,inactive
BPTF (GeneID 2186),-1.3,0.796,0.0732,-0.0191,-0.0756,inactive
NTRK1 (GeneID 4914),-0.799,0.842,0.0933,0.122,0.126,inactive
CDC42BPB (GeneID 9578),0.517,0.964,-0.0205,-0.0154,-0.15,inactive
NEK9 (GeneID 91754),-0.0388,0.913,0.0435,0.00581,-0.114,inactive
PI4KA (GeneID 5297),0.01,0.917,0.197,0.09,-0.0354,inactive
